Reference: article PMC3217011
No constants are given. Whether binding was seen depends on the method and setting. Some results given as binding are weak or reduced against the parent protein; the word gives no strength.

Sequences of proteins named here, by UniProt entry; tags and fusion partners are left off.
UniProt P27588: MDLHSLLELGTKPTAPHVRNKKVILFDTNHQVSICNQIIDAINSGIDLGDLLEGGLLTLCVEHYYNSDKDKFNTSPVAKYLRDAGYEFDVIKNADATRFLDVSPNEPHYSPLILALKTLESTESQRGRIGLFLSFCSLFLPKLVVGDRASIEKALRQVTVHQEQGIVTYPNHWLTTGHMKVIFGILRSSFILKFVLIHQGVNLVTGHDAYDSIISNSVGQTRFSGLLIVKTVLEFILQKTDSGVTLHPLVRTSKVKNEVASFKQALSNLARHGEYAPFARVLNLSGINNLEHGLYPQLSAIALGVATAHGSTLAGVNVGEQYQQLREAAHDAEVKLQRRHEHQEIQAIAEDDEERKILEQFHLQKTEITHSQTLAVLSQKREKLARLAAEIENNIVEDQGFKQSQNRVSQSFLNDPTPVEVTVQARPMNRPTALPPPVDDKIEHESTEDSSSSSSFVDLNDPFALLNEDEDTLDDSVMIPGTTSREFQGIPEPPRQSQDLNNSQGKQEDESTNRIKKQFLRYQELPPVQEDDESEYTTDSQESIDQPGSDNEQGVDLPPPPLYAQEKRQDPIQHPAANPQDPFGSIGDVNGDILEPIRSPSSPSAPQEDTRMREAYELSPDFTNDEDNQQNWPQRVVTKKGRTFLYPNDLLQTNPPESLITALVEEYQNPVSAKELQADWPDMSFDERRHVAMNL

Columns and labels:
[1] = target: full-length Marburg virus nucleoprotein (MARV NP), recombinant (Marburg virus) (UniProt P27588); test: cryoEM images; both purified
[2] = target: Marburg virus nucleoprotein (NP) in the nucleocapsid of purified virions (Marburg virus) (UniProt P27588); test: cryo-EM structure

Substance | binding [1] | binding [2]
full-length Marburg virus nucleoprotein (MARV NP), recombinant (from UniProt P27588 1-695) | binds | –
Marburg virus nucleoprotein (NP) in the nucleocapsid of purified virions (from UniProt P27588 1-695) | – | binds
